Data set [1] can be described thus: peptide synthesis. Conditions: conjugation step, analytical RP-HPLC, Waters Symmetry C18, detection at 280 nm; SDS-PAGE.
Data set [2] is described as follows: peptide synthesis. The following applies: conjugation step.

“LPNYNWNSFGLRF-NH2 (Kisspeptin-13 mPEG-butyraldehyde 30K, mono-PEGylated; UniProt Q15726 109-121, looked up)”: the “final HPLC purity” value in data set [1] came to 100% pure.

Consider “mono-[mPEG2-ButyrAldehyde-40K]-[Kisspeptin-54] (GTSLSPPPESSGSPQQPGLSAPHSRQIPAPQGAVLVQREKDLPNYNWNSFGLRF; Metastin mPEG2-butyraldehyde 40K, mono-PEGylated; UniProt Q15726 68-121, looked up)”, for which the “final HPLC purity” value in data set [2] was found to be 100%.

These data come from patent US20110171160A1 (Nektar Therapeutics, priority 2008, published 2011).
